Source: publication PMC11105424
Results are given in words; binding and its absence hold for the method and conditions named. For part of these data: In cells and extracts the contact can be indirect. Some binding calls cover weakened binding; strength is not graded here.

Amino acid sequences for entries named in this document (tags omitted). Residues count along the entry.
UniProt P48356, residues 22-1162: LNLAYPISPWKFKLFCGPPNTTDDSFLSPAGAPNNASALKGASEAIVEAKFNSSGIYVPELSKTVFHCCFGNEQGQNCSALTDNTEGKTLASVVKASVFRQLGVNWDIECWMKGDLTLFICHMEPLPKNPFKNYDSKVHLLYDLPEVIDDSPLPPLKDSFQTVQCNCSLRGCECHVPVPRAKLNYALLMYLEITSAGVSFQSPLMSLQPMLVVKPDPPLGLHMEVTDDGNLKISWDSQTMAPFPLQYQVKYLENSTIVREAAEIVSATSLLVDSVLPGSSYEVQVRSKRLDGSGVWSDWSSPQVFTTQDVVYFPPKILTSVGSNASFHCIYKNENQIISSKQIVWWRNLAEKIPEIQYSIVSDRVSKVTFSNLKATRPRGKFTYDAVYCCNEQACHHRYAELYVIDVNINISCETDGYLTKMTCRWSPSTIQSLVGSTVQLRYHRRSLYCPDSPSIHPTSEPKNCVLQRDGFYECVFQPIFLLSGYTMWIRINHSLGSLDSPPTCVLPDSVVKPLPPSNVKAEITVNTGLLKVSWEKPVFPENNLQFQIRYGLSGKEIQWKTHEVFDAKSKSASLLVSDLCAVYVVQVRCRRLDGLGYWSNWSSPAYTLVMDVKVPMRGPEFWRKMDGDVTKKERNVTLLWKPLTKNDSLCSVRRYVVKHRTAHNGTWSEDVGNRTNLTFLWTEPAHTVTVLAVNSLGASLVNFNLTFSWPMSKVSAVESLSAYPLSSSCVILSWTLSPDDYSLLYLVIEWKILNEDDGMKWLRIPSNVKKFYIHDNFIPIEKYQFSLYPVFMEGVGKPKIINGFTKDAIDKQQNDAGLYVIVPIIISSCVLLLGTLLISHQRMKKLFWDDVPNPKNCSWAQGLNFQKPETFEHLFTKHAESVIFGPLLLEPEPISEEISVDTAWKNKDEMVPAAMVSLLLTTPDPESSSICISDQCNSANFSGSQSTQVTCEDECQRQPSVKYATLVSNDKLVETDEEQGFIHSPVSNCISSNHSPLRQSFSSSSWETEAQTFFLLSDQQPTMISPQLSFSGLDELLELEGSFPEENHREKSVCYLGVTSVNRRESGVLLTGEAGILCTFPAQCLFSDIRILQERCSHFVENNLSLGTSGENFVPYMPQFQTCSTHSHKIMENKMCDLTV
UniProt P41160, residues 22-167: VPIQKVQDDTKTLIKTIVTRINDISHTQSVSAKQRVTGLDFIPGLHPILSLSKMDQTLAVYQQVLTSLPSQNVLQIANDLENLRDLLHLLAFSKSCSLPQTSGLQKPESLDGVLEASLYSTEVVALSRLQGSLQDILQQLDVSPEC

Tests used:
[1] = target: LR-FLAG (leptin receptor, FLAG-tagged) (UniProt P48356); assay: co-IP; Hek293T cells co-transfected with tagged EGFR and LR or LR-FATT; lysed 24 h later in modified RIPA buffer; immunoprecipitation with anti-FLAG M2 affinity resin; Western blot with anti-FLAG and anti-E-tag; no ligand
SNAP-EGFR on HeLa cells = SNAP-EGFR on HeLa cells (UniProt P00533); assay: labelling of cells with fluorescent leptin (microscopy); HeLa cells expressing SNAP-EGFR (SNAP-green) with or without LR, incubated with leptin-d2 (20 nM); only the binder purified
[2] = target: LR co-expressed with SNAP-EGFR on HeLa cells (UniProt P48356); assay: as above

“E-tagged EGFR (epidermal growth factor receptor) (from UniProt P00533 25-1210)” was tested, and the binding [1] was “binds”.

In the case of “leptin-d2 (leptin labelled with the d2 fluorophore) (from UniProt P41160 22-167) (ligand)”, the binding (SNAP-EGFR on HeLa cells) is reported as “no binding (tested: 20 nM)” and the binding [2] is reported as “binds”.
